Consider 1 molecule from article PMC9045335.

The target in this experiment is TurboID-HA-Urm1 fusion (Toxoplasma gondii). As to the kind of experiment: proximity labelling; TurboID-HA-Urm1 tachyzoites in Vero cells, 150 uM biotin 24 h at 37 C, with or without Dia; RIPA lysate; streptavidin magnetic beads; mass spectrometry.

These are yes or no findings as the source states them, for the method shown. In cells and extracts the contact can be indirect. These calls come from enrichment with a bait or labelling near it, and not all partners need be listed.

B1: RON4 (protein, UniProt B6KJ32 27-984)
chain: SPPTPAPRMYPNMNERPLSAESRLTPGTYRSELHIDLKSPQKTASQSSLAPTGDNNSKVESIIAGSDTTPRSAEGTSESPPVPQLGTPPRPAPRRSKGEGERQPPTAAPRTSRSVDTGSGSDASTEQQAGGQKVVTPIPASKGIYPSLDELRRSQESNVDAGSGTSTNEGGGTSEGPQVPQSGIPPRTGRRRAKARNRKRHPTPASRESSSEDENQPPTTASRPSNGEGESQPPTAAPRTSRSVDTGSGSDASTEQQAGGQKVVTPIPASKGIYPNLDELRQTQEGEESAPQPADVTWFSMSVPMGVVDRRVSRALKEQFFQFLQHLSADYPKQVQTVYEFLGWVADKLPENEEEVQMFIDALNTTEAMVGKAARWIFKAIPERERETIYSSFYQMFRDKLPKKFFETAEGMNPDVGQYFSAEEPVAVTPEIPAKSEEDSEAAETPTPLRRQANVAAQVLHPLPAKGVTRREWIPWPKMQNAISKAHGPLTRVPEWTPVTGSCALGDGYTDIDVTKATTDVLFRITLLILQQIRRKKTERGKLEDDQALVALCSAAGAFVDAWQHQQQALILEDPGTPKAHAQLIERLRNAGKYFMKSYDETTGESDHQQWKKNKAEVSKLGKSALMKSCVKYIKASGDVATRPFDSGTAKYPSRSLYGGIANTLETPFADSEAVAKAVHDYAKEHKKPEKLVGLCGALQISGYFKKCFSDAGRLSSVSFFHQHVDGASVLVRTLARERPIGRHALSQAICDPNISAQYFEGAFRLFSSTVSQEWEKENLFAQLASWTGKEMVLAPSLEEQAAVPPAQPAYETVYGDEEDRIYRIHVSGRHSSPQEVLYVGGIPSTVKPQQVHVLGPTVSDESRRMIHPVRHRSRTAPSSEAASTAAESSDEDPLPAENATAFLGVTPQEEESDAYKHTLDFDAVSPRKNKNKENRISAPLKQSDTLIEESTSKTSEL
In the case of B1, the binding result is “binds”.
